Literature values, collected in patent US11723873B2, “Oral dosage form of ticagrelor and preparation method thereof” (Elite Pharmaceutical Solution Inc., priority 2021, dated 2023).
At least one read-out could not be matched to a standard name with certainty.

Details: ticagrelor, current product in the market, after administration

In the case of `CCCSc1nc(N[C@@H]2C[C@H]2c2ccc(F)c(F)c2)c2nnn([C@@H]3C[C@H](OCCO)[C@@H](O)[C@H]3O)c2n1` [ticagrelor, (1S,2S,3R,5S)-3-[7-{[(1R,2S)-2-(3,4-difluorophenyl)cyclopropyl]amino}-5-(propylthio)-3H-[1,2,3]-triazolo[4,5-d]pyrimidin-3-yl]-5-(2-hydroxyethoxy)cyclopentane-1,2-diol], the “median time (Tmax) to reach the peak plasma concentration (Cmax)” value is listed as 1.5 h.
